Reference: PubChem BioAssay AID652272 (Drosophila RNAi Screening Center, 2013)
In all, the deposit lists about 21,000 reagents; this is a random part of those that have a named target and a result. Over the whole deposit, 503 (2.4%) are marked active. 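Raw plate light values, not normalised; calls rest on replicate z-scores that were not deposited; hits include reporter decreases as well as increases.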 A number with no mark means an inactive call. Reagent sequences are not shown. The record does not give: the amount of reagent, the time to read-out.

- Screen: 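Finding fly genes that regulate Hedgehog signal transduction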 (primary screen)
- Cells: Drosophila clone 8 (Cl8) cells
- Reagents: long dsRNA against Drosophila genes
- Measurement: 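Plate reader light from a firefly reporter under a ptc promoter fragment that responds to Hedgehog, with Renilla light as transfection reference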
- Scale: firefly Hh reporter signal: higher = more ptc reporter light; Renilla reference signal: higher = more Renilla control light
- Hit rule: 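Hit when the z-score averaged over two replicates is under -2 or over +3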
- Meaning of the calls: active = hit: reporter lowered or raised; inactive = not a hit

Mst98Cb (Male-specific RNA 98Cb) [DRSC16750] | firefly Hh reporter signal, replicate 1: 1.88e5; firefly Hh reporter signal, replicate 2: 7.21e5; firefly Hh reporter signal, replicate 3: 1.80e5; Renilla reference signal, replicate 1: 6676; Renilla reference signal, replicate 2: 5782
Hn (Henna) [DRSC11184] | firefly Hh reporter signal, replicate 1: 1.07e5; firefly Hh reporter signal, replicate 2: 72474; Renilla reference signal, replicate 1: 4680; Renilla reference signal, replicate 2: 3001
Iyd (Iodotyrosine deiodinase) [DRSC10614] | firefly Hh reporter signal, replicate 1: 56731; firefly Hh reporter signal, replicate 2: 41365; firefly Hh reporter signal, replicate 3: 46592; Renilla reference signal, replicate 1: 3441; Renilla reference signal, replicate 2: 3604
Iyd (Iodotyrosine deiodinase) [DRSC10615] | firefly Hh reporter signal, replicate 1: 33995; firefly Hh reporter signal, replicate 2: 54107; firefly Hh reporter signal, replicate 3: 48984; Renilla reference signal, replicate 1: 4149; Renilla reference signal, replicate 2: 3717
EMRE (Essential MCU regulator) [DRSC06686] | firefly Hh reporter signal, replicate 1: 1.23e5; firefly Hh reporter signal, replicate 2: 64341; Renilla reference signal, replicate 1: 3754; Renilla reference signal, replicate 2: 5142
CG9135 [DRSC03144] | firefly Hh reporter signal, replicate 1: 73844; firefly Hh reporter signal, replicate 2: 75075; Renilla reference signal, replicate 1: 3634; Renilla reference signal, replicate 2: 3498
CG12848 [DRSC04128] | firefly Hh reporter signal, replicate 1: 1.07e5; firefly Hh reporter signal, replicate 2: 64965; Renilla reference signal, replicate 1: 2480; Renilla reference signal, replicate 2: 5650
CG13310 [DRSC09981] | firefly Hh reporter signal, replicate 1: 37563; firefly Hh reporter signal, replicate 2: 57335; Renilla reference signal, replicate 1: 1256; Renilla reference signal, replicate 2: 4208

The list goes on (2 carried over from the part before).
CG12848 [DRSC04128] | firefly Hh reporter signal, replicate 1: 1.07e5; firefly Hh reporter signal, replicate 2: 64965; Renilla reference signal, replicate 1: 2480; Renilla reference signal, replicate 2: 5650
CG13310 [DRSC09981] | firefly Hh reporter signal, replicate 1: 37563; firefly Hh reporter signal, replicate 2: 57335; Renilla reference signal, replicate 1: 1256; Renilla reference signal, replicate 2: 4208
dbf (doublefault) [DRSC02570] | firefly Hh reporter signal, replicate 1: 1.35e5; firefly Hh reporter signal, replicate 2: 45891; Renilla reference signal, replicate 1: 2793; Renilla reference signal, replicate 2: 4705
CG33233 [DRSC08239] | firefly Hh reporter signal, replicate 1: 74481; firefly Hh reporter signal, replicate 2: 51632; Renilla reference signal, replicate 1: 2342; Renilla reference signal, replicate 2: 4151
CG15506 [DRSC15047] | firefly Hh reporter signal, replicate 1: 76637; firefly Hh reporter signal, replicate 2: 83499; Renilla reference signal, replicate 1: 2281; Renilla reference signal, replicate 2: 2407
nanos [DRSC17018] | firefly Hh reporter signal, replicate 1: 4.52e5; firefly Hh reporter signal, replicate 2: 54808; Renilla reference signal, replicate 1: 21509; Renilla reference signal, replicate 2: 1403
